In the experiment the target is cohesin tetramer complex (Smc1-Smc3-Scc1-Scc3) (S. cerevisiae (budding yeast)) (UniProt P32908+P47037+Q12158+P40541). Nature of the experiment: SEC; Superose 6 Increase 3.2/300; 25 mM HEPES-KOH pH 7.6, 100 mM sodium acetate, 0.5 mM TCEP, 2 mM EDTA; proteins at the same molarity incubated together or separately at 30 °C for 5 min; fractions analysed by immunoblotting; both purified.

Sequences of proteins named here, by UniProt entry; tags and fusion partners are left off. A change or cut given only in a name is not applied to a line headed by its entry.
UniProt P32908: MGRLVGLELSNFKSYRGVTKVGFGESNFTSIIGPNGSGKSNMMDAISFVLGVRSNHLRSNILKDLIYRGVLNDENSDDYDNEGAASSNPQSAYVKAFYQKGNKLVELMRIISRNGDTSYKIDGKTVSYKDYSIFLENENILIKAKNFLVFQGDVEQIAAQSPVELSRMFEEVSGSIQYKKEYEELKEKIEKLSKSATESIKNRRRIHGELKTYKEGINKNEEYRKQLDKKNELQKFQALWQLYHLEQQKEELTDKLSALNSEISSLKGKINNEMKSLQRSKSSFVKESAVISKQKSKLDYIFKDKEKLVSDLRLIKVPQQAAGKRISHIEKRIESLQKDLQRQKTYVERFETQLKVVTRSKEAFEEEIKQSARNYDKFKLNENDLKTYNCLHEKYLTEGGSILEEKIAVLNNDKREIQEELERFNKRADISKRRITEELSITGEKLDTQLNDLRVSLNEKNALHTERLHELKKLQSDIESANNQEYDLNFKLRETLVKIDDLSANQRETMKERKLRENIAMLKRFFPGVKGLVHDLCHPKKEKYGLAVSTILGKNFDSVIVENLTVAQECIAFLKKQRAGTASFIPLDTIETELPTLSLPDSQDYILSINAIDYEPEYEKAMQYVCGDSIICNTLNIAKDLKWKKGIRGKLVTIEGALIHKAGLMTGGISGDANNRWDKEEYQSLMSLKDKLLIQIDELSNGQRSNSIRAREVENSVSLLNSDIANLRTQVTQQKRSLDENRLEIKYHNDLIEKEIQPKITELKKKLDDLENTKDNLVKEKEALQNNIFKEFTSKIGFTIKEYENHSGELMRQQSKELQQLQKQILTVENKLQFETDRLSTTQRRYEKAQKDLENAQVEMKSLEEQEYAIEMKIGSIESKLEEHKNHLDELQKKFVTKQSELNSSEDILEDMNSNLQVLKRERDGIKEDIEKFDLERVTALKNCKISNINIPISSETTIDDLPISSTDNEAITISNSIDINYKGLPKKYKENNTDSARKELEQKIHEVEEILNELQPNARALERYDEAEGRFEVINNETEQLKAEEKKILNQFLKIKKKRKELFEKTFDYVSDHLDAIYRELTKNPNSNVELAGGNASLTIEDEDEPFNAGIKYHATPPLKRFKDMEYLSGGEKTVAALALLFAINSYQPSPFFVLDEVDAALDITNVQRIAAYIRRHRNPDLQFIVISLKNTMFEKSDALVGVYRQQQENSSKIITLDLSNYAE
UniProt P47037: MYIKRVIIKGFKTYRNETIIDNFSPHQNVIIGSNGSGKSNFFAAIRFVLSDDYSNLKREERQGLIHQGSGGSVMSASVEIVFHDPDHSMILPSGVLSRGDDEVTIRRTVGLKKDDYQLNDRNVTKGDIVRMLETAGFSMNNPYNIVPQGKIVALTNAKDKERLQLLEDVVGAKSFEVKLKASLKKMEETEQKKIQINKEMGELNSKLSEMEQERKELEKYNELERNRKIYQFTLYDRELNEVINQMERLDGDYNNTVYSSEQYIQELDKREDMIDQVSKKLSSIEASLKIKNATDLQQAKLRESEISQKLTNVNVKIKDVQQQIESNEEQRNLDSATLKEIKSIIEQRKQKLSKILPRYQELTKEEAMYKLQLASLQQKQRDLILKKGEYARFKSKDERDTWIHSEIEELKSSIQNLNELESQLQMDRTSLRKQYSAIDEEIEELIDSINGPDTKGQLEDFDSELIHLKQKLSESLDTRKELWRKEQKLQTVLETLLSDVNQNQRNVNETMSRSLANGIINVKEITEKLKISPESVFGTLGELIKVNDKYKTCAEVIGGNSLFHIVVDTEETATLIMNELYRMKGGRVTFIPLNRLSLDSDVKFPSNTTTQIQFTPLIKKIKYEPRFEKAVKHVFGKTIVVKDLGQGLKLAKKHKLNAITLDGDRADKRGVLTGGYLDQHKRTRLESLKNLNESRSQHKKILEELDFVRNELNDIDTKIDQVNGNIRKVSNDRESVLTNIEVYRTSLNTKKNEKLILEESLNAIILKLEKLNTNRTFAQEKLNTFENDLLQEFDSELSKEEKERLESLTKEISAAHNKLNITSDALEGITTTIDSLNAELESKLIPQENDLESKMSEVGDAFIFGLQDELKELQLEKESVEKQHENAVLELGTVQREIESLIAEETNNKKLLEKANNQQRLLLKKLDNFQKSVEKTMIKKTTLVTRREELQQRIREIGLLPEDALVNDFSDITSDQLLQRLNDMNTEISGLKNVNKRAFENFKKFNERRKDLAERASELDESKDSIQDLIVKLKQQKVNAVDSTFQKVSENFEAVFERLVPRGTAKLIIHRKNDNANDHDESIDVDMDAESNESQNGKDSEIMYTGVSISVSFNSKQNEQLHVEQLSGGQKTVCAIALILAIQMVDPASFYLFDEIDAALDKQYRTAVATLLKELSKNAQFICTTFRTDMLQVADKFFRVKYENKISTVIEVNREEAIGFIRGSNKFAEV
UniProt Q12158: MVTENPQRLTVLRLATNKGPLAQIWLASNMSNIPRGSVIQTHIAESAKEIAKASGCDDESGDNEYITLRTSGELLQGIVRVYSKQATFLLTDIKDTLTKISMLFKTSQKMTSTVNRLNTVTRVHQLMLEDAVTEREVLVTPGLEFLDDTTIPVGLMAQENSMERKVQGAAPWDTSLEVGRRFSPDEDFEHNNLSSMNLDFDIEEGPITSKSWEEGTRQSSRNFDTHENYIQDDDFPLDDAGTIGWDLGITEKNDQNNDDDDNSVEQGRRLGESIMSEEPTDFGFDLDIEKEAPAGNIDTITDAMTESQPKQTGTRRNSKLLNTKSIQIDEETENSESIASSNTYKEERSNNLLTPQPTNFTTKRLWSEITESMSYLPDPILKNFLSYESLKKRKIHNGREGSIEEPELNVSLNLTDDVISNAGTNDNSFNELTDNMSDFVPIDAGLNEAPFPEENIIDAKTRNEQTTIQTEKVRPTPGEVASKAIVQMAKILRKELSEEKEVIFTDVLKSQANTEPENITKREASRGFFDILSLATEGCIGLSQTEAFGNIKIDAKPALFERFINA
UniProt P40541: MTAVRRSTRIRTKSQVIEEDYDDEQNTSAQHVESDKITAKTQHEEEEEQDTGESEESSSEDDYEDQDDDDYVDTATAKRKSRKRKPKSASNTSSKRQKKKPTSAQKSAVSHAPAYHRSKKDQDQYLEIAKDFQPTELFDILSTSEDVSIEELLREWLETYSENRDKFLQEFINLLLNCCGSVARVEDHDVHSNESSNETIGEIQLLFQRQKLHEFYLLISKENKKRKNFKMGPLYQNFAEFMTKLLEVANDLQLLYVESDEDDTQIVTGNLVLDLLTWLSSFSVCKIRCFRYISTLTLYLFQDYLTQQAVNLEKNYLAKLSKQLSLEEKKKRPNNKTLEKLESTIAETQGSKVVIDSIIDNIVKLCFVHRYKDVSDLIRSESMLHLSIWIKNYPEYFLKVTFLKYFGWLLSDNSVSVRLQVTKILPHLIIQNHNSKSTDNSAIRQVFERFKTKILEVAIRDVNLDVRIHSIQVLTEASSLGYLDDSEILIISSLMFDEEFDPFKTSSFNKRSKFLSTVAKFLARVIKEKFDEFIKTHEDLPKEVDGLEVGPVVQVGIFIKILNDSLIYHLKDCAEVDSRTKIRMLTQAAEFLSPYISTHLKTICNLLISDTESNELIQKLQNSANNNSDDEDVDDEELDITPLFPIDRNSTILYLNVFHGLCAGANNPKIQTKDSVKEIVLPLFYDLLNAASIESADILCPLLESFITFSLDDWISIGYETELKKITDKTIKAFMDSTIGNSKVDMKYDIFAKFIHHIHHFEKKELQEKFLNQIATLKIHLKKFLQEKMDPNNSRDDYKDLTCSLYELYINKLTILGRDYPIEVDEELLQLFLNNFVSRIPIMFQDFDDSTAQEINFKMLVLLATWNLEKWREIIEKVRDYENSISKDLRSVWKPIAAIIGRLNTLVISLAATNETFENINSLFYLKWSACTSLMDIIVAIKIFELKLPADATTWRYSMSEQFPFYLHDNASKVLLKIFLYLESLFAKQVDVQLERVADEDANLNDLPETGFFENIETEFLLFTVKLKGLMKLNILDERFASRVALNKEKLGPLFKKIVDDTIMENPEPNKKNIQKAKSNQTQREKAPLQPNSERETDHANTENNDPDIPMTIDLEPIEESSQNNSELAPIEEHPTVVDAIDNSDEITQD
UniProt P53840: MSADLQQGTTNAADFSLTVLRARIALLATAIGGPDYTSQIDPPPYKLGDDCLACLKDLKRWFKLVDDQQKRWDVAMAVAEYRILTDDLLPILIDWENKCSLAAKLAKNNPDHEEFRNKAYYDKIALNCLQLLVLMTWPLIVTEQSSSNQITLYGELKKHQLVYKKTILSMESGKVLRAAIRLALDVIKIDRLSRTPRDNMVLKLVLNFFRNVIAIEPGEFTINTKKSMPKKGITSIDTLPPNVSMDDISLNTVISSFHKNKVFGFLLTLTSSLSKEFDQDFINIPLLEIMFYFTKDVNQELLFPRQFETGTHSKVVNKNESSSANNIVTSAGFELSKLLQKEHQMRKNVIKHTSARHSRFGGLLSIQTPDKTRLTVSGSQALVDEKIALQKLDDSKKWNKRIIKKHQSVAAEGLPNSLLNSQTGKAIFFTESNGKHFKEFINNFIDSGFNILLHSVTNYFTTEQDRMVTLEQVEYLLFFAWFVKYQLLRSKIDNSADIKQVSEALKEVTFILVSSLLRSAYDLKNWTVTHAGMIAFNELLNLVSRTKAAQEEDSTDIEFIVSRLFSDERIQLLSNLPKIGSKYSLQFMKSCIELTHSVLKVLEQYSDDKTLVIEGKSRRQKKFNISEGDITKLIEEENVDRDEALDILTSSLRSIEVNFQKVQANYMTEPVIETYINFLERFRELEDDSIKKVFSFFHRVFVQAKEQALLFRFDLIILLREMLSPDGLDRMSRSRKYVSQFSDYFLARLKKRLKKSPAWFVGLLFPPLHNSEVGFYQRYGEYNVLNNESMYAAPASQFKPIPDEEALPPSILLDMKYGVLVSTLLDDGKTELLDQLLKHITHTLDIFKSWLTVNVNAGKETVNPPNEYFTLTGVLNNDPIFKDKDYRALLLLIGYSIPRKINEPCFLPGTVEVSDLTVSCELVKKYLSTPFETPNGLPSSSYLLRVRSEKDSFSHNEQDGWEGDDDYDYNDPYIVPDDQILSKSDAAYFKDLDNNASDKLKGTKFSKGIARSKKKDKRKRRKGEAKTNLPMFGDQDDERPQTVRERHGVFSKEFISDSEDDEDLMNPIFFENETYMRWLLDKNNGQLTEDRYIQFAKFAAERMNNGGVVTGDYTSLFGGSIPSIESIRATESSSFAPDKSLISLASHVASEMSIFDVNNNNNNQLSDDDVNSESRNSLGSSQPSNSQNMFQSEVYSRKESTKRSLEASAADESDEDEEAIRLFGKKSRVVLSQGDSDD

Results are given in words; binding and its absence hold for the method and conditions named. Some results given as binding are weak or reduced against the parent protein; the word gives no strength.

As for “Tof1-Csm3 complex (from UniProt P53840 1-1238; Q04659 1-317)”, the binding result is reported as “binds weakly”.

The values above are taken from publication PMC10247859.
